The supplement of paper PMC3334620
In all, about 33,000 sequences were measured (“E-score (-0.5 to 0.5)”: median about -0.0014, highest 2% from about 0.25 on). This is one part of the list.

Target: T1, Cad1 (UniProt P24813)
T1 sequence: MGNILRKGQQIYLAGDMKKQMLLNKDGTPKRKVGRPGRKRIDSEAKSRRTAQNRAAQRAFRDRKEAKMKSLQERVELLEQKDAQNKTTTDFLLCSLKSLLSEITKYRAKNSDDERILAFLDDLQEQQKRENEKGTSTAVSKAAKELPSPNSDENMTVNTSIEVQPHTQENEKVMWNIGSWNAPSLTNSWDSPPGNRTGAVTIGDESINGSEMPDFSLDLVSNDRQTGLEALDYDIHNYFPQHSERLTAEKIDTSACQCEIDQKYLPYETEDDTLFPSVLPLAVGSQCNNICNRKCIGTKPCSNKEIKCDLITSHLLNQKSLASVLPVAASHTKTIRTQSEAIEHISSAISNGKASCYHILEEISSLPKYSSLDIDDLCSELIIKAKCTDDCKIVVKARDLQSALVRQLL
Experiment: PBM E-score (8-mer binding enrichment) (E-score (-0.5 to 0.5)); higher = stronger / more preferred TF binding
Conditions: protein concentration: 100 nM; construct: GST-full length
How it was run: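 E-scores (a modified Wilcoxon-Mann-Whitney statistic) were assigned by the Universal PBM Analysis Suite to every ungapped eight-base word pooled with its reverse complement. The input came from universal all-10-mer Agilent arrays made double-stranded by primer extension and probed with GST-tagged yeast transcription factors at about 100-200 nM. Fluorescent anti-GST detected bound protein, and masliner normalised the scans.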

Sequence | PBM E-score
TGACATCA | 0.186
ACACGTTC | 0.129
ACCATCGA | 0.104
GTCAGCAA | 0.295
AGCCATTA | 0.0718
AATGCCGG | 0.0256
TAATTAGA | 0.219
GCGATCAC | 0.0333
AAAAATAT | 0.205
ACTCGCCC | -0.193
GGCTCAAA | 0.0219
CCAACCTC | 0.00899
AGACCAAC | -0.0795
CAAGGATG | -0.0792
AAGAGCTA | -0.0042
CTTGGCGA | -0.169
ATCCGATA | 0.136
GGGTATCA | -0.00298
CACGACAA | 0.105
CTCCCCTC | -0.238
AAGTACAA | -0.0585
AGAGGACT | -0.357
AGGTTTAC | -0.138
GACGTGTA | -0.0301
AACACGAA | 0.217

Sequence | PBM E-score
CTCCCGGA | -0.183
AAGATGCG | 0.0209
CTGAGAAA | -0.0304
CTCTTTTC | -0.0429
CTATGAAC | 0.0413
GAAGGCTA | -0.0959
AGTAGTCA | 0.0524
CGGATCCA | 0.0492
GCTGAAAA | 0.141
AACACCAC | 0.0441
AAAGACCC | -0.125
ATCAGCAA | 0.122
ATGCTTGA | 0.128
ACTGGAGA | -0.124
ATCACAAG | 0.0939
TCGATCCA | -0.0414
ATGCGCGA | 0.0852
GACATCGA | -0.0153
ATCGAGGA | 0.135
CGCACCGC | -0.0793
ATGTATTA | 0.121
GGCCCGAC | 0.0437
AACTCTTA | 0.0953
TACTCGCA | 0.216
AAGCTACC | 0.0175

Reprinted at random: two records from the list, in no set order.
Sequence | PBM E-score
AAGTACAA | -0.0585
CTCTTTTC | -0.0429

A section taken from the entries so far, as a working copy:
Sequence | PBM E-score
CACGACAA | 0.105
CTCCCCTC | -0.238
AAGTACAA | -0.0585
AGAGGACT | -0.357

(next part)

Sequence | PBM E-score
ACACTCAA | 0.124
GTTACGGA | -0.0631
AACGGTCC | -0.0507
AAACAAGC | 0.0118
ACCTGCCC | -0.064
AATGCCAA | 0.027
CGCTCACC | -0.146
AGCACCTG | -0.104
GCTATACC | 0.0606
AGCTTACC | -0.0175
CCATCATA | -0.27
GAGGTGAC | 0.0748
ACGTCACG | 0.0291
CGGAATGC | 0.0138
AATGGCCC | -0.158
GAGTGTCC | 0.0576
AATAACCT | -0.114
ACATTCAA | 0.0432
AGGCATAC | 0.0831
ACTCAGAA | 0.178
AGGTTAAT | 0.0288
AACGAGGG | -0.185
CTTATCTC | 0.063
CAGACCTG | -0.0473
AAAGCAGT | 0.03

Sequence | PBM E-score
GAGACAAC | 0.0594
AGGATTAG | 0.00136
AAGGTGCG | -0.0392
CCGGGACA | 0.067
GCTGTACC | 0.0106
GGTCGTAA | 0.0676
ACTCTCTG | -0.00478
ATTTGTTC | 0.265
CGCACGCC | -0.106
CGGGTTAG | -0.179
AATTGAGC | -0.108
CCAACTCC | -0.0401
CCCACGAC | -0.195
TCGGGGAA | 0.0236
GAGTGAGC | -0.0112
GGGAACAA | 0.0338
CTATTGGC | -0.279
CGAGGGAA | -0.126
AGTCCGCG | 0.0892
AAGGTCAG | -0.105
CGCATAGC | -0.0722
AAGCACTC | 0.0478
GCGGAGCA | -0.246
ACTCGTCT | 0.0182
AATTTCAC | 0.178

Sequence | PBM E-score
ACATCTTA | -0.0753
ACGAAGAT | 0.0507
ACACTGTC | 0.0876
CCAACAAG | -0.13
AGTGGTCC | -0.00985
CCTGGTAC | -0.0372
GTAATGTA | 0.00177
CTATTTTA | 0.104
ATCGTTAA | 0.165
GTTACACA | 0.101
AGGGTTCA | 0.0205
CGTTACAG | -0.0983
CTCTATTA | -0.0331
CAGAGGGG | -0.351
ACTGTACT | -0.125
ATAATAGG | 0.0291
ATCATGTC | 0.195
CGTTGGCC | -0.189
ACCCTGTA | 0.0849
AAGGCTAG | -0.137
CAAATTTG | 0.33
TACACCCA | 0.0878
GGCGTTTA | -0.0553
GTTTACTA | 0.195
CAGTGCAA | 0.137

Sequence | PBM E-score
GTTTCTAA | 0.00035
ATAAATTA | 0.364
GTTGACGA | 0.108
CACCATAC | -0.0136
ACCAGTCA | -0.0959
CCAATCCC | -0.119
CAACTCTC | -0.0706
AAGTTAAC | 0.199
CGTATGTC | -0.101
ACTATCTC | 0.0895
ACAGCAGA | 0.00526
CCAAAGGG | -0.0732
CCTTGCGC | -0.0395
CCTACACG | -0.175
GGACATCC | 0.0434
CTATGCTA | 0.0539
ATATCGAT | 0.23
AAAGCTTC | -0.0978
GCTTCCCA | -0.121
CTATCAAC | 0.219
TTAATGAA | 0.115
GAGTCTAC | -0.221
CAGGGGGA | -0.365
ATGTTGAC | 0.0163
AAACCCGT | -0.148

Sequence | PBM E-score
CCGGCTTA | 0.0705
ATCTTCAC | -0.0332
ACGCTTCA | -0.227
GATTCAGA | 0.185
CCCTACAG | -0.124
CGATCTGA | 0.0521
ACAGCGGC | 0.0806
ACATATGT | 0.0475
AGCTCCCC | -0.375
GACCGCTC | -0.231
CTCTCCAG | -0.318
ACGGTGTC | -0.0795
AAATTGCA | 0.108
CGGAACGA | 0.0857
GTCTAACA | -0.161
ATTGAGTC | 0.0114
AGTTGTCC | -0.0988
GTCTACGA | -0.0725
TGCAGAAA | 0.114
AGGACAAA | 0.141
GCGCGATA | 0.211
CACGTTCA | -0.0186

Looked up above:
PBM E-score, CAGAGGGG reads -0.351
PBM E-score, AGGTTAAT reads 0.0288
